# Source: PubChem BioAssay AID540276 (National Center for Advancing Translational Sciences (NCATS), 2011)
# Several values for one entry are separate records, joined by “and”; a condition that tells them apart may be missing. Identical values can stand only once. The campaign covered roughly 300,000 compounds. About 5,400 (1.8%) were called active. Inconclusive means that the source gave no clear call. Such entries were picked first, then a sample of the others. The call rests on the fitted dose curve; tested in HEK293 cells. Potencies beside an inconclusive call are fits to weak or partial responses and may not hold up. A structure can be active in one record and inactive in another.
# Experiment: qHTS for inhibitors of binding or entry into cells for Marburg Virus
# Conditions: Marburg virus pseudotyped entry inhibition, cell reporter; activity change, negative = inhibition: at 37.8 µM (top of the series) unless noted
# On the % scale 0 is the no-effect control and ±100 the full control effect; potency means the concentration at half of the fitted maximal effect.
Compound,Potency,"activity change, negative = inhibition"
CCn1c(Cc2ccccc2)nnc1SCc1ccc([N+](=O)[O-])cc1,"inconclusive: 35.5 µM [inhibitor, single point]",–
CCC(CC)C(=O)Nc1cc([N+](=O)[O-])ccc1Cl,"inconclusive: 6.31 µM [inhibitor, single point]",–
Cc1cc(C(=O)COC(=O)c2ccco2)c(C)n1Cc1ccco1,"inconclusive: 11.6 µM [inhibitor, partial curve, poor fit]",–
Cc1nn(-c2ccccc2)c(C)c1NC(=O)COc1ccc(F)cc1Cl,"inconclusive: 15.8 µM [inhibitor, single point]",–
OCCc1ccc(O)c(-n2nc3ccccc3n2)c1,"inconclusive: 35.5 µM [activator, single point]",–
Cc1nnc2n(Cc3ccccc3)c(=O)c3c4c(sc3n12)CN(Cc1ccccc1)CC4,–,inactive: 0.142%
CC(C)N(Cc1ccccc1)C(=S)Nc1cccnc1,–,inactive: -2.62% [at 46.1 µM]
CN(C)CCC(=O)N1C/C(=C/c2ccccc2)C(=O)/C(=C\c2ccccc2)C1,"inconclusive: 1 µM [inhibitor, full curve, poor fit]",–
CCOC(=O)N1CCc2c(sc3c2c(=O)n(-c2ccccc2)c(=O)n3CC(=O)Nc2ccc(OC)cc2OC)C1,–,inactive: -3.17% [at 46.1 µM]
CCN1C(=O)NC(CCc2ccccc2)C(C(=O)OC)=C1C (stereo unspecified),–,inactive: 16.7% [at 14.2 µM]
CCCSc1nn2c(=O)c3ccccc3nc2s1,–,inactive: -23.3%
COc1cc(NC(=O)c2ccc(F)cc2)c(OC)cc1Cl,–,inactive: -0.165%
N/C(=N\OC(=O)CCCc1ccccc1)c1cccc([N+](=O)[O-])c1,–,inactive: 7.09%
COCCNC(=O)c1n[nH]c2ccccc12,"inconclusive: 5.62 µM [activator, single point]",–
Oc1cc2c(cc1O)C(c1ccccc1)CNCC2 (stereo unspecified),active: 15.8 µM,–
CCOc1ccc(C(=O)N2CCC(c3nnc(-c4ccccc4OC)o3)CC2)cc1,–,inactive: 0.485% [at 46.1 µM]
CCOC(=O)c1c(CNCCN(CC)CC)n(C)c2cc(Br)c(OC)cc12,inactive and active: 11.2 µM,–
CCCS(=O)(=O)c1cn2cccc(N)c2c1S(=O)(=O)CCC,–,inactive: 9.23%
Cc1cc(C)nc(NS(=O)(=O)c2ccc(NC(=O)c3ccc4c(c3)OCO4)cc2)n1,–,inactive: 9.75%
CC1CN(S(=O)(=O)c2cccc(-c3csc(-c4ccccc4)n3)c2)CC(C)O1 (stereo unspecified),"inconclusive: 35.5 µM [inhibitor, single point]",–
CCNC(=O)CC1C(=O)N(c2ccc(F)cc2)C(=O)N1CCOC (stereo unspecified),–,inactive: 6.33% [at 46.1 µM]
COc1cc2c(cc1NC(=O)C(C)N1CCN(S(=O)(=O)c3ccccc3[N+](=O)[O-])CC1)oc1ccccc12 (stereo unspecified),"inconclusive: 7.3 µM [activator, partial curve, poor fit]",–
CC(=O)c1cc(C(=O)Nc2ccc(C(=O)O)cc2)oc1C,"inconclusive: 12.6 µM [activator, single point]",–
CCOC(CNC(=O)c1ccc2nc(N3CCC(C)CC3)sc2c1)OCC,"inconclusive: 8.2 µM [activator, partial curve, poor fit]",–

Compound,Potency,"activity change, negative = inhibition"
CS(=O)(=O)N(C(=O)NC(=O)NC12CC3CC(CC(C3)C1)C2)C1CCCCC1,–,inactive: 7.07% [at 46.1 µM]
CCNC(=S)Nc1ccc(N(c2ccccc2)C(C)C)cc1,–,inactive: -8.64%
Cn1c(CCNC(=O)c2ccco2)nc2cc(NC(=O)c3ccccc3)ccc21,"inconclusive: 0.708 µM [activator, partial curve, poor fit]",–
C=CCOc1nc2c(c(=O)n(C)c(=O)n2C)n1Cc1ccccc1,–,inactive: 3.81% [at 46.1 µM]
Cc1ccccc1NC(=S)N(C)Cc1cccs1,–,inactive: -13.7% [at 46.1 µM]
O=C(CSC1=Nc2ccccc2C2=NC(CCC(=O)NC3CCCCC3)C(=O)N12)Nc1cccc(C(F)(F)F)c1 (stereo unspecified),–,inactive: 3.2% [at 46.1 µM]
O=C(c1ccc([N+](=O)[O-])cc1[N+](=O)[O-])N1CCCC1,–,inactive: 0.583% [at 46.1 µM]
Cc1c(Cl)c([N+](=O)[O-])nn1Cc1ccc(C(=O)N/N=C\c2cc(Cl)ccc2O)o1,"inconclusive: 11.2 µM [inhibitor, partial curve, poor fit]",–
O=C(/C=C/c1ccc(-c2ccccc2)o1)c1ccccc1,–,inactive: 16.3%
COc1ccc(C(=O)Nc2cc3c(cc2C(=O)c2ccccc2Cl)OCCO3)cc1,–,inactive: -0.791% [at 46.1 µM]
COc1ccc(-c2nnc(NC(=O)C3CC3)o2)cc1,"inconclusive: 8.91 µM [activator, partial curve, poor fit]",–
COc1ccc(C(=O)NCC(=O)OCC(=O)c2ccc3c(c2)NC(=O)CO3)cc1OC,"inconclusive: 20 µM [activator, single point]",–
CC[C@@H](c1ccccc1)n1c(=O)n2n(c1=O)[C@H]1[C@H](O)[C@H]3O[C@@H]3/C(=N/OCc3ccccc3)[C@@H]1CC2,"inconclusive: 0.596 µM [inhibitor, single point]",–
O=C(Nc1cc(C(F)(F)F)ccc1N1CCCCC1)c1cccc([N+](=O)[O-])c1,–,inactive: -28.9%
CCNS(=O)(=O)c1ccc(C)c(-n2cnnn2)c1C,–,inactive: -12.1% [at 46.1 µM]
Cc1ccc(CN2CCN(CC(C)C)C(CCO)C2)s1 (stereo unspecified),"inconclusive: 1 µM [activator, full curve, poor fit]",–
Cc1c(N(C)S(=O)(=O)c2cccc(C(=O)NC(C)C)c2)c(=O)n(-c2ccccc2)n1C,–,inactive: -4.84% [at 46.1 µM]
CC1(c2cccc(Br)c2)NC(=O)N(CC(=O)Nc2cccnc2Cl)C1=O (stereo unspecified),"inconclusive: 3.98 µM [inhibitor, single point]",–
COCCNC(=O)C(C#N)c1nc2ccccc2nc1N1CCCCCC1 (stereo unspecified),"inconclusive: 2.51 µM [inhibitor, single point]",–
Cc1ccc(C(=O)OCC(=O)NC2CCCCC2)s1,–,inactive: 1.3% [at 46.1 µM]
Cc1cc(C(=O)COc2ccc(-c3nnco3)cc2)c(C)n1Cc1ccccc1,"inconclusive: 14.6 µM [inhibitor, partial curve, poor fit]",–
COc1cc(C2(c3ccc(O)c(OC)c3)C(=O)N(C)c3ccc(Br)cc32)ccc1O,"inconclusive: 22.4 µM [inhibitor, single point]",–
Cc1cc(Cl)ccc1OCC(=O)N1CCN(c2ncccn2)CC1,"inconclusive: 5.62 µM [activator, single point]",–
Fc1cccc(F)c1/C=N/N1CCOCC1,–,inactive: 3.02% [at 46.1 µM]

Compound,Potency,"activity change, negative = inhibition"
COc1ccc(C2CC(c3ccc(Br)cc3)=NN2C(=O)CSC2=NCCS2)cc1 (stereo unspecified),"inconclusive: 8.91 µM [inhibitor, partial curve, poor fit]",–
Cc1c(CNC2CCCCC2)c(C(=O)O)c(C)n1Cc1c(F)cccc1Cl,–,inactive: 3.01% [at 46.1 µM]
COc1ccc(S(=O)(=O)N2CCCC(C(=O)NCCCn3ccnc3)C2)cc1OC (stereo unspecified),"inconclusive: 6.31 µM [inhibitor, single point]",–
O=C(COC(=O)/C=C/c1ccco1)Nc1ccc(F)cc1Cl,–,inactive: -0.122% [at 46.1 µM]
CCOc1ccc(CCNC(=O)CN(C)S(=O)(=O)c2cccs2)cc1OCC,"inconclusive: 6.31 µM [inhibitor, partial curve, poor fit]",–
N/C(CC(=O)Nc1ccc(F)c(Cl)c1)=N\OC(=O)c1cccs1,"inconclusive: 35.5 µM [inhibitor, single point]",–
O=[N+]([O-])c1cccc(C([O-])=C(C(=S)Nc2cccc3ccccc23)[n+]2ccccc2)c1,"inconclusive: 15.8 µM [inhibitor, single point]",–
c1csc(-c2nc(N3CCOCC3)c3ccccc3n2)c1,"inconclusive: 6.31 µM [inhibitor, partial curve, poor fit]",–
CCN1CCCC1Cn1cnc2c([nH]c3ccc(OC)cc32)c1=O (stereo unspecified),"inconclusive: 4.47 µM [inhibitor, full curve, poor fit]",–
COc1ccc(-n2c(C)nc3c(cnn3-c3ccc(Cl)cc3)c2=O)cc1,"inconclusive: 22.4 µM [inhibitor, partial curve, poor fit]",–
CCOc1ccccc1NC(=O)Cn1c(=O)n(CCC(=O)NCc2ccc3c(c2)OCO3)c(=O)c2ccccc21,"inconclusive: 10 µM [inhibitor, partial curve, poor fit]",–
COc1cc(OC)c(NC(=O)c2csc3c2CCC(C)C3)cc1Cl (stereo unspecified),–,inactive: -14.8% [at 46.1 µM]
c1ccc(-c2ncc3ccccn23)cc1,–,inactive: 12% [at 46.1 µM]
C[C@@]1(C2CCCC2)Cc2cc(OCC(=O)O)c(Cl)c(Cl)c2C1=O,"inconclusive: 0.794 µM [inhibitor, full curve]",–
O=C(COC(=O)Cc1ccc(Br)cc1)NC1CCCC1,–,inactive: 2.38% [at 46.1 µM]
COCCCN(C(=O)c1ccco1)c1nc(-c2ccc(OC)cc2)cs1,"inconclusive: 35.5 µM [inhibitor, single point]",–
CCc1ccccc1N1CC(c2nc3ccccc3n2CCCOc2ccc(Cl)cc2)CC1=O (stereo unspecified),"inconclusive: 15.8 µM [inhibitor, single point]",–
COC(=O)N/N=C/c1cn(CCOc2ccccc2)c2ccccc12,"inconclusive: 14.1 µM [inhibitor, single point]",–
Cc1ccc2c(c1)C1CN(C)CCC1N2C(=O)c1ccccc1NS(=O)(=O)c1ccc(F)cc1 (stereo unspecified),"inconclusive: 25.1 µM [inhibitor, partial curve, poor fit]",–
O=C(Nc1ccc([N+](=O)[O-])cc1)NN1CCCCCC1,"inconclusive: 7.08 µM [inhibitor, partial curve, poor fit]",–
Cc1ccc(NC(=O)CSc2nc3ccccc3c3nc(CCc4c(C)n[nH]c4C)nn23)cc1F,"inconclusive: 9.2 µM [inhibitor, partial curve]",–
NC(=O)c1ccc(CN2CCC(Cc3ccccc3)CC2)cc1,"inconclusive: 11.2 µM [inhibitor, partial curve, poor fit]",–
CCN1CCN(CCCN(Cc2ccco2)C(=S)Nc2ccc(Cl)c(C)c2)CC1,"inconclusive: 31.6 µM [inhibitor, single point]",–
